These are yes or no findings as the source states them, for the method shown. In cells and extracts the contact can be indirect. Some binding calls cover weakened binding; strength is not graded here. For part of these data: Where a sequence is shown, tags or fusion partners need not be part of it. One block for each molecule: values may come before it.
Tests used:
[1] = biological target: METTL3 (human (endogenous in H1 hESCs)) (UniProt Q86U44); assay: FRET or BRET; acceptor photobleaching FRET (FRET-AB, Leica SP8 STED) on fixed immunostained cells; Alexa Fluor 488 donor, Alexa Fluor 568 acceptor
[2] = biological target: METTL3 (human (endogenous in H1 hESCs)) (UniProt Q86U44); assay: co-IP; anti-METTL3 antibody, protein A and G magnetic beads, whole cell extract of WT hESCs or METTL3−/− hESCs rescued by WT or mutant METTL3; 50 mM Tris-HCl pH 7.6, 150 mM KCl, 1 mM EDTA, 10% glycerol, 4 °C 16 h; also with RNase A treatment (interactions impaired)
[3] = biological target: WT METTL3 (exogenous, in METTL3−/− hESCs rescued by WT METTL3) (UniProt Q86U44); assay: as above
FLAG-tagged SUV39H1 = biological target: T1, FLAG-tagged SUV39H1 (UniProt O43463); assay: co-IP; 293T cells co-transfected with FLAG-SUV39H1 or FLAG-SUV39H2, MYC-ubiquitin and HA-METTL3; precipitated with anti-FLAG antibody, blots with anti-tag antibodies
T1 sequence: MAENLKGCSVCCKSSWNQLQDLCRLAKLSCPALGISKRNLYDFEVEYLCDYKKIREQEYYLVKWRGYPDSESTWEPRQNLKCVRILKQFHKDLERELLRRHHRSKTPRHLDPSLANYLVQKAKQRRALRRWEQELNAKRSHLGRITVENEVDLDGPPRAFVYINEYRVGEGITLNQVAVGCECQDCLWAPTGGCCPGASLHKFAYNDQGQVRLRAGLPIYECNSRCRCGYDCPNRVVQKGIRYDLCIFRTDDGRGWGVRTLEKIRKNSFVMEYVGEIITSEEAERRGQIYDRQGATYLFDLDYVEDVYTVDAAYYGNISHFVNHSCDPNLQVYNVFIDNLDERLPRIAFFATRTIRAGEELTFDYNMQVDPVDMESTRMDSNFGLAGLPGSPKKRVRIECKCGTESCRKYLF

Protein sequences, listed by entry. Tags and fused reporters are not part of them.
UniProt Q86U44: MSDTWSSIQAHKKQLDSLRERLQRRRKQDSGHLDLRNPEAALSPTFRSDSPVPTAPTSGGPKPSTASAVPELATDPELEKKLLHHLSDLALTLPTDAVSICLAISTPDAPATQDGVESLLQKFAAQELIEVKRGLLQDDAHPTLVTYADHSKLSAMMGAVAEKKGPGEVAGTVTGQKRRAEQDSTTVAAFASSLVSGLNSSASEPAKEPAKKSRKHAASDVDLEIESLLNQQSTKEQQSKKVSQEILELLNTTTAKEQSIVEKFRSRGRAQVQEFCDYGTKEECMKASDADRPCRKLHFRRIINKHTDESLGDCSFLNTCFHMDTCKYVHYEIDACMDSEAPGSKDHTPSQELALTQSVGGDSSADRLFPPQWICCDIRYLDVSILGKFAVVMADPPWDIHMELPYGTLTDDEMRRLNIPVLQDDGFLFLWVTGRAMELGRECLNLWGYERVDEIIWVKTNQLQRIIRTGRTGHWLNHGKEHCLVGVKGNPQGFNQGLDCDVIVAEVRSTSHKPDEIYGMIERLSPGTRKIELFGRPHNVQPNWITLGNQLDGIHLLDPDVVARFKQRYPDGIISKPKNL
UniProt Q9H5I1: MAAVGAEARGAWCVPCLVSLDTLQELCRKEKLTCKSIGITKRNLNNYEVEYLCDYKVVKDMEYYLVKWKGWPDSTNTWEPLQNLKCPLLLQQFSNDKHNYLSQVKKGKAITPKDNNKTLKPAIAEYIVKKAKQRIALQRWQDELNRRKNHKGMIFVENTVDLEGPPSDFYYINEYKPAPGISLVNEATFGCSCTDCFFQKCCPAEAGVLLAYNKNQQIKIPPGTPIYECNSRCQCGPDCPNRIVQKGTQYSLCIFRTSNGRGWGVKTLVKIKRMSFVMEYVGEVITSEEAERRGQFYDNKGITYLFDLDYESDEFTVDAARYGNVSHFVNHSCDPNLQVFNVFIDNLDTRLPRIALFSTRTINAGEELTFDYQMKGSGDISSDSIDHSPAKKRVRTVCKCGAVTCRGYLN
UniProt Q16531: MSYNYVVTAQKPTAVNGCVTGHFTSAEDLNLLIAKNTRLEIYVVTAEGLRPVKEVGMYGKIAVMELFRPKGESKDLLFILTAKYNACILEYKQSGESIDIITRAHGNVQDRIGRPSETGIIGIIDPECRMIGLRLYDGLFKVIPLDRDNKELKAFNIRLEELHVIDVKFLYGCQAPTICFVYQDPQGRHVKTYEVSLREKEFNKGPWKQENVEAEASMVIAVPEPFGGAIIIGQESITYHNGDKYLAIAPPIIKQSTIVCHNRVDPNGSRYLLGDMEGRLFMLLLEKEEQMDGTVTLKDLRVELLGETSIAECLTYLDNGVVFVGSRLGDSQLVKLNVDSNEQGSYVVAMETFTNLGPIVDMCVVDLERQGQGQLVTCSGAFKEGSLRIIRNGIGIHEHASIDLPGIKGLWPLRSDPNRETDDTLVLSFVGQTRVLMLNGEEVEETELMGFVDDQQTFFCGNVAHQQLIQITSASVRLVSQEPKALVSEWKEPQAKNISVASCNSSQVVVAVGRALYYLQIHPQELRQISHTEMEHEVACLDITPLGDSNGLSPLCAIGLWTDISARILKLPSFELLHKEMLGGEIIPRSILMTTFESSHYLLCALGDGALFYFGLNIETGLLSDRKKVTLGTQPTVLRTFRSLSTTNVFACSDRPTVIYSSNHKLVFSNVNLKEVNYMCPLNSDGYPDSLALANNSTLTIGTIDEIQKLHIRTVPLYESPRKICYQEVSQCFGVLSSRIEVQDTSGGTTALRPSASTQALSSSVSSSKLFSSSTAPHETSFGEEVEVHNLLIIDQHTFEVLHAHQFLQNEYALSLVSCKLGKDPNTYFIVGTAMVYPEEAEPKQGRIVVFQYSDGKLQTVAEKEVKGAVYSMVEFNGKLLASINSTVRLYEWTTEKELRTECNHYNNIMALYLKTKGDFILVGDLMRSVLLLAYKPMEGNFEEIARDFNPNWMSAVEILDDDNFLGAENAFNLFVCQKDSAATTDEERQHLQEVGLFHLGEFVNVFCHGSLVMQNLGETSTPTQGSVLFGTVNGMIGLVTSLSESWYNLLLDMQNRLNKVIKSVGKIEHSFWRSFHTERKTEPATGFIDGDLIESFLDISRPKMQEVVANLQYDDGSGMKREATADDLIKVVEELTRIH

FLAG-tagged SUV39H2 = FLAG-tagged SUV39H2 (UniProt Q9H5I1); assay: as above
[4] = biological target: DDB1 (human (endogenous in H1 hESCs)) (UniProt Q16531); assay: co-IP; anti-DDB1 antibody, protein A and G magnetic beads, whole cell extract of WT hESCs or METTL3−/− hESCs rescued by WT or mutant METTL3; 50 mM Tris-HCl pH 7.6, 150 mM KCl, 1 mM EDTA, 10% glycerol, 4 °C 16 h; also WT hESCs treated with Actinomycin D for 3, 9, 24 h (interaction impaired)
[5] = biological target: DDB1 (human (endogenous in H1 hESCs)) (UniProt Q16531); assay: FRET or BRET; acceptor photobleaching FRET (FRET-AB, Leica SP8 STED) on fixed immunostained cells; Alexa Fluor 488 donor, Alexa Fluor 568 acceptor

- binding [1]: binds
- binding [2]: binds
- binding [3]: binds
Molecule: DDB1 (from UniProt Q16531 1-1140)

- binding [4]: binds
Molecule: METTL3 (from UniProt Q86U44 1-580)

Continued, molecule first:

Molecule: HA-tagged WT-METTL3 (from UniProt Q86U44 1-580)
- binding (FLAG-tagged SUV39H1): binds
- binding (FLAG-tagged SUV39H2): binds

Molecule: SUV39H2 (from UniProt Q9H5I1 1-410)
- binding [1]: binds
- binding [2]: binds
- binding [3]: binds

Molecule: WT METTL3 (exogenous, in METTL3−/− hESCs rescued by WT METTL3) (from UniProt Q86U44 1-580)
- binding [4]: binds

B1: METTL14 (protein, UniProt Q9HCE5 1-456)
chain: MDSRLQEIRERQKLRRQLLAQQLGAESADSIGAVLNSKDEQREIAETRETCRASYDTSAPNAKRKYLDEGETDEDKMEEYKDELEMQQDEENLPYEEEIYKDSSTFLKGTQSLNPHNDYCQHFVDTGHRPQNFIRDVGLADRFEEYPKLRELIRLKDELIAKSNTPPMYLQADIEAFDIRELTPKFDVILLEPPLEEYYRETGITANEKCWTWDDIMKLEIDEIAAPRSFIFLWCGSGEGLDLGRVCLRKWGYRRCEDICWIKTNKNNPGKTKTLDPKAVFQRTKEHCLMGIKGTVKRSTDGDFIHANVDIDLIITEEPEIGNIEKPVEIFHIIEHFCLGRRRLHLFGRDSTIRPGWLTVGPTLTNSNYNAETYASYFSAPNSYLTGCTEEIERLRPKSPPPKSKSDRGGGAPRGGGRGGTSAGRGRERNRSNFRGERGGFRGGRGGAHRGGFPPR
- binding [4]: binds
- binding [5]: binds

B2: SUV39H1 (protein, UniProt O43463 1-412)
chain: T1 sequence
- binding [1]: binds
- binding [2]: binds
- binding [3]: binds

Source: publication PMC11339338
